Data from article PMC9315497, “Structural Analysis of Ino2p/Ino4p Mutual Interactions and Their Binding Interface with Promoter DNA”.

Legend:
Ino2pDBD WT = target: T1, Ino2pDBD WT (UniProt P26798); assay: EMSA; conditions: Ino2p alone; 20 mM Tris-HCl pH 8.0, 100 mM NaCl (buffer B); EMSA 1.5 uM DNA, 1.5-150 uM protein, 1 h on ice; recombinant protein; residues 230-304; protein details: N-terminal His6; label: 5'-FAM on sense strand
T1 sequence (looked up): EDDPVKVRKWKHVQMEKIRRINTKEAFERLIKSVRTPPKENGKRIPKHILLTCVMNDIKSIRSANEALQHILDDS

Ino4pDBD WT = target: T2, Ino4pDBD WT (UniProt P13902); assay: EMSA; conditions: Ino4p alone; 20 mM Tris-HCl pH 8.0, 100 mM NaCl (buffer B); EMSA 1.5 uM DNA, 1.5-150 uM protein, 1 h on ice; recombinant protein; residues 40-117; label: 5'-FAM on sense strand
T2 sequence (looked up): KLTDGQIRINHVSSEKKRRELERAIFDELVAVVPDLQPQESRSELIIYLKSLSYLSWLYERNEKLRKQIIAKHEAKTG

“GAATTTTCACATGCAGATC (double strand) [19bp-FAM promoter DNA]”: no binding (Ino2pDBD WT); no binding (Ino4pDBD WT).

No signal at the amounts used counts as a negative. Where a protein sequence is shown, tags need not be part of it.
